Assay results reported in PMC11277477.
Results are given in words; binding and its absence hold for the method and conditions named. In cells and extracts the contact can be indirect. These calls come from enrichment with a bait or labelling near it, and not all partners need be listed. For some assays here: Where a sequence is shown, tags or fusion partners need not be part of it.

T1: GST-Adh recombinant protein (E. histolytica)
T1 sequence: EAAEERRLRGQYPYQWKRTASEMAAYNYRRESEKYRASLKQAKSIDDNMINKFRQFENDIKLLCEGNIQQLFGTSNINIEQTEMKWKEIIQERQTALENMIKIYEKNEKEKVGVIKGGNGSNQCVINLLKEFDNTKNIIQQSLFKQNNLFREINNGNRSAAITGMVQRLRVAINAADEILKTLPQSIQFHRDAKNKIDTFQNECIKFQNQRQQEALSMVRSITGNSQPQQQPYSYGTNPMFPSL

T2: GST-Linker recombinant protein (E. histolytica)
T2 sequence: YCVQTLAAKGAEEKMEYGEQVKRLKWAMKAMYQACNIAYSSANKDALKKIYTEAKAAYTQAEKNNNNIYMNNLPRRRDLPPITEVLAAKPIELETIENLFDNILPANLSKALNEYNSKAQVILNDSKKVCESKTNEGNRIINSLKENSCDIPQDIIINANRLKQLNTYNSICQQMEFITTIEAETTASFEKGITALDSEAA

B1: EhPeroxiredoxin (EhPrx) (enzyme, UniProt C4MAR7 1-229)
chain: MSCNQQKECCKKECQEKECCCPRIKAFKKFINTFEKAQIGKEAPEFKAPAYCPCGSIKEIDINEYRGKYVVLLFYPLDWTFVCPTEMIGYSELAGQLKEINCEVIGVSVDSVYCHQAWCEADKSKGGVGKLTFPLVSDIKRCISIKYGMLNVEAGIARRGYVIIDDKGKVRYIQMNDDGIGRSTEETIRIVKAIQFSDEHGAVCPLNWKPGKDTIEPTPDGIKKYLTAH
B2: EhNPC1 (protein, UniProt C4M8X7 1-1339)
chain: MFVFFFLISVVISITPLPGGERDINNLDQYNNKCRMHNVPGCTAPAINMKSDGTLYLTDAYPAPKNMIEICISEHPEFDPNVTLGHKTCCDEHSVLDLKEQSTLLDGSFGKCPACYLNQMNLWCGFACDPNSARWTEIDDFKHDNTCNEPDGIDVPSLYYYLHPLYAQQIYDSCKDTELSGGFAVRSLYPTYKEFFQMISDVNPVMPLHFVYDETGYNGSKYTEMHKCSDMCSCQSCHEMCTEFIEDEPTFKDYPFLDGTLNIITIISIHLFMLFIMVTITVCGGILSYKTFTQMKKSNPTLLYISYISLGAVTLLGIGFIIMGIIVVGFPMEGVITSMPWGDGNLLGMILLYIGFGVYVIGYSVYDLYYFVIYTLYNKKESEDIIDSAKVSILGQEESCEEDPNKVDLTDNFLSKAMSWYTKFLWKFKWIILTVVILCCIVLCVGVFKIVFITDSLGLWVPKNCQTMKDKNYYDEAFGPFFRINQFMLSDKLHPGNQVLTQPLIVQLQQMIDEIRAIHVEWTDKETGITKDITMDDMCYKPVFGKGCIITSVTGYWQHDINKIMNTENVTQYIQNCLGNPLATGCADDIGSPVDPHNSLGNYTVGDNNDPMKATILQATFMFNQPNKTAIEWAELWEEKYLEILDRDYSLVKVAYQAQRSVDDEINRETFTDVLTVLCSYMVMFIYISLSLGNSFYHFNYKTVFVKSRILLGILGIVIVLFSVFTSAGFFSWINVEATLIITEVIPFLVLAIGVDNIFILTNTIDEQPMYDKDGQYVPVEKRLEHSLMHVGPSMMLASISESLAFFLGYLTSMPAVQSFSLYAGLAIFIDFILQITVYAVLLCYDVKRQESHGLDFIPWLQVHDNSLDEQHDFERGSLIKHLFKYVATFLSYYPVKIIGLFFFIAFFIFSLNYVPKTMLGLPQETALPQDSYIQDYFVALTYLEIGPPVYIVVRDGATYLNETTQSALCASDNFGCDALSIPNYYDAARTIDGTTFDWIDDYFSWAAQKDCCRLDKDGNICPYDMPNYTECTPCFTNFTDKKRPVPEDFYKYINRFLTASINETLCSVNGQAYYPDVVWNHINGTKETDYSYVNVSRLRLYHTVLVTQDDFIDAMVQAYNISDYMNSIFDVKTFPYAYHYVYFQQYFNIVDLCVMDVCLALAAVFIVVMLLMFDPIVAIMIVLCVLMCVIDLIGIMYLWGVELNAVSCVNLVMSIGITIEFCVHIAHAFLSSPKKTLNDKMKDAVMNMGNNVFVGITLTKFLGVIVLSLSSGLIFVIYYFRMYFMMLIFGASHGLFFLPILLSLIPSVSLSHITDPFKKMFGRCNKKKSTKGEYQNFE
B3: EhVps35 (protein, UniProt C4M4G0 1-746)
chain: MSKKVQQVDPVTESNQKQNNMAMYTDLMRRAMDHKNYNEALENAYKICEQMNTTNLIPAQYYNLYLVLQQCLSVLDMYLRTDYIADGNDILDLYEEVQTYQCAVARLYLMCIVGSAAVKSKKVGIVVFLKDIIEMSRAVQHPTKGIFLRNYILDCVKSILPSSTTEEPSEGNLINSIEFLLNNFSEMCRLLVRLTQGPQVTEQKVEEQQQLCQVVGKNLMIMSNLDGVSLELYSTNILPRFLEQVLLSRDKVTQDYLYDALIQAFPADYQLATLHLLLHSLGGVVANVGIRRILCSLMERISSYVSANPQIERNMDMFKIFSTHISQIVKTQTLTCEEYVSVYATLAHLVIVWHNEDDAYTQLNAINDNVYDYLTTQQNISIEAANALMSLLQFPFTKYNVLKVIQLRVYPELINLLPYTLRHETHRFVAKKVTEKNHISSTGDIMVLTIRCIETLYQDTKDMTPLNDEELAIDCNLFKTVALSSTVSTESFFDIVREVKNAVKNAGNRRSLMILPTVISMYLRAIPVITDKKDDMFKCVFDILKTLKTLSHFVALKCCVEVGSAAAQAKYSQASYFFETALTMYEDETDIPKEESLKLILSTLASCSLEDDMNEVYIIGCGKFIQLLQDSFQKGKLYCQVSSALFNEQRKVAKQSVSYLQKAVKEAGLCQVAEQNIELLIDILNIYIIHFIRDNSEITAEYINNFANVIKESISQTEIPKLQSYYKETADYIATRTEDKVKQLQL
B4: BAR/SH3 domain protein (EHI_105240) (protein, UniProt C4M128 1-566)
chain: MSIRDALSKKIYQVKTTLNMSEKTIDVEYQRVYNKFKYQEVGLNRLYHLIANNLDLMIQVQHTRIDITDALVQLTDPIVEINSAALKYKTTCEIESMAVSKYKQTVQKVVISPLLELKKMYNILSARHAILKVRHNDCDRFQDQMNNSKGENHVQAKQKYERSLDLYNYLRSELVEDMKNIISTSMLFYNETMIGLIGSDIYEDEQITETRSSLFNLQNSMEKTELTQKTYTITPPDQSCVTEDIVFRKKQNDLHCGKYKLEVCFVKESSAVNITEPEDVNRYPTLKKELPPTKPNQLQQTSRTVPLPKSTPQQQQPKIDDKTSVSKTGSALNIKKDEPNQRRQTQKLQSLTEQKKEQSKPQISTKIEKQENNSIKKVEQQPNSKKRAVKNLKRIENRQTRMLSEIRNGKTQQKDVRHSVLIPKNPENMKKPTQLDPKVRARIEKMKKEQEKDDEFEVVTVDIDSVSNSKTQETPKKKFEIVECDEDTTEESSDVESIELELDEFEKEEETVKLYKAIYSYDATESLELSFKKGDIIKIYSTDDEWFEGEINGKRGFVPSNFLQPL
B5: EhHSP70 (EHI_127700) (protein, UniProt B1N4X0 1-598)
chain: MFVSQPARSTCIGIDLGTTNSCMCVFDKTTPRILENAEGKRTTPSCVSFTPTGILVGEAAKRMEALHPTTTVSGVKRMIGCQYKSVEQQRKPYKIVEGKNGEGWIYINGKTYSPSEISSFILKKLKKDAEAKLGKRVDEAVITCPAYFNDAQRQATKDAGTLAGLKVKRIINEPTAAALAYGIDTRKENEGKNIAVYDLGGGTFDISILNINKGIFQVKATNGDTMLGGEDFDKAICQYIEKEFERKYKRNLQRNKKGISRIKEAAEKVKCELSSNEESVISLPYLDRQDSLEITISRRKIELLCKGICKRTEYPCLQCMKDAKLRKKDISDVVLVGGMTRMPLIQNTVQEIFGKKPSKNVNPDEAVAIGAAIQASIIEGKKKDIILVDVTPLTLGIETYGGVMTPLINRNTTIPTSVSKEFTTSMDNQQEVDIKVFQGERRVTRKNKKLGEFKLVGIPPAKKGVAKIEVTFDIDVNGIVKVSALDKGTGKKTGIQVKSNGGLNEEEINRLVKEGEEHAAEDKRKEQLLLHRQRLKEMIESAEDIQKELLKKKIEIRELERVINQSKKVITSEDENEIKRLINQLGEETSNSSAKLYK
B6: Proteosome alpha subunit (protein, UniProt Q94561 1-247)
chain: MFMTKNENDHGVNTFSSEGRLFQVEYATEAMKLGSTVIGIQTKEGVVLAVEKRISSPLMLGSSIEKIIEIDDHIGAAVSGLTADARTLIDNARLEAQNHRFMYDEPINVEVVAQAISDLSLRFGEGSRKKKVMSRPFGVALLIAGVDETGPRLFQTDPSGMFIEFYAKATGAGTEAAQSILHEKYNKSMTLREAEILALSTLKQVMEEKLNSKNVEVALVTVEKKKFEIMDTAFIENLIGEIKEELI
B7: Ribosomal protein 60S L26 (protein, UniProt C4LSU3 1-213)
chain: MKFNCKVSSNPSKARKALYTANASQRALMMSARLSKELREKYNVIAIPIHKDDEVKIIKGHQKVAGKVTAVRRSKYVINIDKLTKTKANGQTVPIAIRPSNVIITKLFLNKDREALLAKKAESRKSYKELVAKRNEEVAKAFTAVYPALNMDIFGKKVEPITEKKPIRIPSKKMAEKLMSKPTLRAYKTGIKVHKAKNAIAAYKAALAKKIAK
B8: Acetyltransferase, GNAT family (enzyme, UniProt C4M6X5 1-163)
chain: MLNIGIHFIDEIRRVNCNVLPVMYSDIFYNKIKKEDSIVIKSLNLIFKDLVIERMLIKEVSENNKIVGGIIGMKEKDKYVLMTLAVYTKFQGKGYGSKLVEFFIQKVKEKGIRKIEVQVHIDNKHAIEFYTKFGFKRIKTIPKAYPRLSHPSGYLYELILNTM
B9: AIG1 family protein (protein, UniProt B1N537 1-298)
chain: MSTEEVKETKLLLIGDIGDGKSSLGNFILKDNKFAVSSGCDAKTQETVGYNGEGNRRNVFVIDTPGLQDSCKMNERWLNAMADCINNKKGVQAIVIVLNYNNGVLSNDLKTMIEIICNIFPFYKFWEHVCVVWTNCYNYTPQKQLDIHKKSKKDYYYPQLKRVIEEFSGNKEEYDIEPPMYYVDSHPDEGCDNSRSEMEIEKLLTWARSFKKPINIKREQKREDSEYKKVVTQEKQRRVEADENNINRMSQVKPMRRDIKIQYNGKVSCSEWEVMESKSEPDIKIKQEKLIQFNCTIL
B10: RIO1 family protein (protein, UniProt C4M7J5 1-345)
chain: MSKEEFRVLTAIEMGMRNHELVPLELIIQISKLNQSLVVRSMKDLHKHKLVWHSTMPYNGYRLTYLGYDYLALRTLTQRGVITGVAQKIGVGKEADIYLATNEKGDDLVLKFHRLGRTSFRAVKKKRDYTKGRVTTNWLYLSRLSAQKEFAFMKALYAKGFPTPIPVDCNRHCVLMSRVKGTLLANVREIEEPIAVFHQGLDLAVKLAECGLIHCDLNEFNLILSDDDKLTMIDFPQMVSVHCSEAEEFFDRDVGCIKTFFWKRFGFGTEEVITLKDIEQTENLDEEVKASGFDFKNEKLLEKARKEFVEDDSVDEEMKDSIDEDVNGNEENSYSDEHEQNEELE

What follows are binders tested against T1, GST-Adh recombinant protein (E. histolytica) (assay: affinity purification with mass spectrometry; GST-tagged bait (or GST control) bound to glutathione-Sepharose (200 μg) incubated with total trophozoite lysate (2 mg), 4 h, 4 °C; SDS-PAGE, silver stain, bands cut, nano UPLC-QToF; hits with reliability above 95%; only the target purified).
B1 was tested, and the binding was “binds”.

The binders below were run against GST-EhADH recombinant protein (E. histolytica) in the same assay as above.
B2 was tested, and the binding was “binds”.

What follows are binders tested against T2, GST-Linker recombinant protein (E. histolytica) in the same assay as above.
With B2 the binding was “binds”.
B3 was tested, and the binding was “binds”.
In the case of B4, the binding is reported as “binds”.
B5 was tested, and the binding was “binds”.
For B6, the binding was “binds”.
With B7 the binding was “binds”.
For B8, the binding was “binds”.
With B9 the binding was “binds”.
In the case of B10, the binding is reported as “binds”.
